Some results were stated once for a whole list of compounds, not compound by compound. Some compounds share one range, which may span the group rather than tell each member.
System: S. mutans (ATCC 25175) biofilm
Test: S. mutans biofilm growth study by CFU count on coated and bulk substrates (Example 4)
Format: cell-based, Streptococcus mutans
Settings: 50 mg/mL coating solution, 24 h
Procedure: Coating formulations of OH-AAZO were prepared in THF, all others were prepared in DMF. The THF volume was kept constant (1 mL) and the mass of OH-AAZO monomer was varied to attain the desired concentration. In addition to the OH-AAZO monomer, the coating also consisted of AIBN (2 wt. % relative to the mass of the monomer), and Rhodamine B (0.2 wt. % relative to the mass of the monomer).
Once cured, the MMA:TEGDMA:PMMA base polymers were placed into a mount on a square glass microscope slide. 3 μL of the coating formulation was added via pipette to one side of the substrate and spin coated (1000 rpm for 1 min, 6000 rpm for 3 min), then the process was repeated on the other side. […]
Following curing, residual monomer was aqueously extracted by autoclaving (20 psi, 128° C.) for 1 h in MilliQ water (approx. 5 mL water per substrate). […] The substrates were blotted dry and analyzed via UV-Vis spectroscopy to confirm the relative amount of the coating (FIG. 9). […]
Following biofilm growth in the 96-well plate, the substrates were aseptically removed from the 96-well plate and placed in a vial containing 5 mL of 1× PBS solution. […] The CFUs on each plate were counted in order to quantify the amount of biofilm remaining on the surface of the substrate and the bacteria remaining in the media after the removal of the substrate using the following equations: […]

## Acrylated azobenzene [AAZO, reference compound]
  CFUs of S. mutans biofilm on substrate surface: 10^7-10^8 CFUs
